Only a part is listed here, and it is no random draw. At the low end of the ranking the order means little.
Molecular target: T1, ETV3 (UniProt P41162-2)
T1 sequence: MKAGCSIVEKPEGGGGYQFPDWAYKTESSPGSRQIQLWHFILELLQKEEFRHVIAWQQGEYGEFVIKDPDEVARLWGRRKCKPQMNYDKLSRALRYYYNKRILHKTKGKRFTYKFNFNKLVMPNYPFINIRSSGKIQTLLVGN
Test: DAPPL (digital affinity profiling via proximity ligation, sequencing)
Details: 10 mM Tris-HCl pH 7.5, 50 mM NaCl, 1 mM DTT, 4% glycerol, room temperature, 30 min; GST-TFs on glutathione beads, 16-mer random dsDNA library, 0.1% …; high values mean tight binding; double strand, one strand shown; scale: fold enrichment (6-mer frequency, TF over GST control)

| Sequence | binding signal |
| --- | --- |
| GACAGC | 0.735 |
| GGGTCA | 0.705 |
| TGGCGG | 0.773 |
| CCAGGT | 0.775 |
| AGGTCA | 0.773 |
| GGAACC | 0.861 |
| GACGCA | 0.547 |
| GGCCGA | 0.773 |
| ACCGTG | 0.237 |
| GAGTTT | 0.623 |
| AGACGG | 0.385 |
| AGACGA | 0.626 |
| GTGGTG | 0.958 |
| CGTGGC | 0.913 |
| CACAGA | 0.839 |
| AGGCGT | 0.454 |
| AAGACC | 0.763 |
| GCCATA | 0.889 |
| CATGTG | 0.798 |
| GTAGAC | 0.713 |

| Sequence | binding signal |
| --- | --- |
| GCGGGA | 0.35 |
| GGGCGC | 0.58 |
| GAAGAC | 0.913 |
| GATAGA | 0.777 |
| GTCATC | 0.855 |
| GACCAG | 0.625 |
| GGAGAA | 0.334 |
| AGTCTG | 0.615 |
| GTCATG | 0.845 |
| TGAGTT | 0.403 |
| TACCAG | 0.791 |
| GGACTA | 0.866 |
| CAGCCG | 0.74 |
| GAGGAT | 0.62 |
| AGCTGG | 0.898 |
| GGGAGA | 0.337 |
| GGTGTG | 0.744 |
| GGCTGT | 0.819 |
| CGGCCG | 0.875 |

A run of entries taken from the entries so far, for reference:

| Sequence | binding signal |
| --- | --- |
| GGGAGA | 0.337 |
| GGTGTG | 0.744 |
| GGCTGT | 0.819 |
